Test: Modification of (co)polymer in Brabender blendor, epoxide content by potentiometric titration
Conditions: 40 mmoles peroxide per 100 g of copolymer

| Compound | Epoxide content (mmoles/100 g copolymer) (1 hour, blendor temperature per peroxide as in Table 4) | Epoxide content (mmoles/100 g copolymer) (reaction time 2,5 hours, 104-124 °C) |
| --- | --- | --- |
| C=CC(C)(C)OOC(C)(C)c1ccccc1 [peroxide 3, α-(2-methyl-3-buten-2-ylperoxy)isopropylbenzene] | 6,9 mmoles/100 g copolymer |  |
| C=CC(C)(C)OOC(=O)OCC(CC)CCCC (centres unmarked) [peroxide 6, 0-(2-ethylhexyl) 0,0-(2-methyl-3-buten-2-yl) monoperoxycarbonate] |  | 4,4 mmoles/100 g copolymer |

Reference: patent EP0273990B1, “Novel organic peroxides and their use in the preparation of epoxide groups containing (co)polymers” (AKZO N.V., priority 1986, dated 1988)
